From paper PMC7605433
Results are given in words; binding and its absence hold for the method and conditions named. In cells and extracts the contact can be indirect. Some results given as binding are weak or reduced against the parent protein; the word gives no strength. For part of these data: Sequences can lack the tags named with a protein.

By UniProt entry, the sequences of proteins in these tests, tags left out.
UniProt P03372: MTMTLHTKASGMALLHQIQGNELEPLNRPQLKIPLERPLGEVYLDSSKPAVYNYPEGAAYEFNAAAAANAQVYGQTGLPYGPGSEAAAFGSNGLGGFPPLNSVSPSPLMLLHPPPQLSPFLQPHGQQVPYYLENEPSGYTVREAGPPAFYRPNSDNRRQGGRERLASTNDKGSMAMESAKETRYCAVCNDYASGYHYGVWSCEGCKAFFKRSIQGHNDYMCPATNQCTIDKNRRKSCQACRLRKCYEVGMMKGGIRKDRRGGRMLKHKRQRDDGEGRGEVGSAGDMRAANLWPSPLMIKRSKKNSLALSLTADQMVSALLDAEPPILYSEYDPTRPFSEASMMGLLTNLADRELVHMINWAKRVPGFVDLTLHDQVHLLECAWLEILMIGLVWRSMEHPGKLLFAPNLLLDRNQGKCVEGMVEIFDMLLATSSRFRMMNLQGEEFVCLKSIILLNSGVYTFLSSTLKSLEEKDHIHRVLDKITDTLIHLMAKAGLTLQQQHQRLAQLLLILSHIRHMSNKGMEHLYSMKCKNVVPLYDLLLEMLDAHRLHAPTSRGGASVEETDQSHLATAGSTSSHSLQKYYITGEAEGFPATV

Key:
[1] = biological target: T1, Myc-RNF181 (UniProt Q9P0P0); experiment: co-IP; HEK293 cells transfected with Myc-RNF181 and HA-ERα full length or mutants, 10 uM MG132 for 6 h, NP-40 lysis buffer; IP with Myc antibody, detection with HA antibody
T1 sequence: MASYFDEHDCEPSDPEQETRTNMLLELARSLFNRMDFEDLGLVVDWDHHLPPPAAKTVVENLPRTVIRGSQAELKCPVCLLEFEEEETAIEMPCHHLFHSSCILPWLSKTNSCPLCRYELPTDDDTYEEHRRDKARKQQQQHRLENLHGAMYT

[2] = biological target: ERα, endogenous (human (endogenous in MCF-7)) (UniProt P03372); experiment: co-IP; endogenous proteins; MCF-7 cells harvested with RIPA lysis buffer, lysate pre-cleared with rabbit IgG, immunoprecipitated with ERα antibody overnight, bound protein analysed with anti-RNF181; rabbit IgG as negative control
[3] = biological target: HA-ERα full length (UniProt P03372); experiment: co-IP; HEK293 cells transfected with HA-ERα and GFP-RNF181 full length or mutants, 10 uM MG132 for 6 h, NP-40 lysis buffer; IP with HA antibody, detection with GFP antibody

HA-ERα full length (from UniProt P03372 1-595) (receptor)
binding [1]: binds

B1: RNF181 (RING Finger Protein 181), endogenous (protein, UniProt Q9P0P0 1-153)
chain: T1 sequence
binding [2]: binds

B2: GFP-RNF181 full length (protein, UniProt Q9P0P0 1-153)
chain: T1 sequence
binding [3]: binds
